Results are given in words; binding and its absence hold for the method and conditions named. Some results given as binding are weak or reduced against the parent protein; the word gives no strength. Where a sequence is shown, tags or fusion partners need not be part of it.
Molecular target: T1, BD-SPY (SPINDLY in pGBKT7) (Arabidopsis thaliana) (UniProt Q96301)
T1 sequence: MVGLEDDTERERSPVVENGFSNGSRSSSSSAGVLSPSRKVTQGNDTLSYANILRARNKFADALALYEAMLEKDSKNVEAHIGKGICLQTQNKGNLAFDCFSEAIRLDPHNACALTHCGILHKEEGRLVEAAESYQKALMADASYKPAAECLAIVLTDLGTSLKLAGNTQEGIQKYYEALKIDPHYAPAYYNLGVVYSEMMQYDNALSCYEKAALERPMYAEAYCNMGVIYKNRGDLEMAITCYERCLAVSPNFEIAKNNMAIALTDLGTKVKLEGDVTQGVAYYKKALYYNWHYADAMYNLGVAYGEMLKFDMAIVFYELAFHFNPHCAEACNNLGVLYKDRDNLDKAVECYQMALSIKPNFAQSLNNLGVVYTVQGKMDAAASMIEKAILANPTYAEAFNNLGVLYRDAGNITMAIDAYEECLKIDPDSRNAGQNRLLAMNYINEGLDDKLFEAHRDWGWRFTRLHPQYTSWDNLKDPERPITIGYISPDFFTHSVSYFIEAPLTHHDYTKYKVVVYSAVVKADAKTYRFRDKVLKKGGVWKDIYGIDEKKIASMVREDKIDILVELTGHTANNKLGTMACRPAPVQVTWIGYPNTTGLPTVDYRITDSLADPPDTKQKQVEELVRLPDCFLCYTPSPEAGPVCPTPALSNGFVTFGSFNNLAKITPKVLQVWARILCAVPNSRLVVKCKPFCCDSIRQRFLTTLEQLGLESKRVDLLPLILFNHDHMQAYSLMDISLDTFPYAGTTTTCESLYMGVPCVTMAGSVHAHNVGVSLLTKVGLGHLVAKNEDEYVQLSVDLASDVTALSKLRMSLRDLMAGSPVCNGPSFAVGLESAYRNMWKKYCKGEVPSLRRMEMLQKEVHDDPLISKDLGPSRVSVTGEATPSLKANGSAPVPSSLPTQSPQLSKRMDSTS
Assay: two-hybrid; one-to-one test: pGBKT7 baits with pGADT7-CPN20; growth on SD/-Trp/-Leu/-His/AbA/X-alpha-Gal or SD/-Trp/-Leu/-His/-Ade/AbA/X-alpha-Gal; pictures after 4 days on SD-3/X/A

binding: binds
B1: AD-CPN20 (full-length CPN20 in pGADT7) (protein, UniProt O65282 1-253)
chain: MAATQLTASPVTMSARSLASLDGLRASSVKFSSLKPGTLRQSQFRRLVVKAASVVAPKYTSIKPLGDRVLVKIKEAEEKTLGGILLPSTAQSKPQGGEVVAVGEGRTIGKNKIDITVPTGAQIIYSKYAGTEVEFNDVKHLILKEDDIVGILETEDIKDLKPLNDRVFIKVAEAEEKTAGGLLLTETTKEKPSIGTVIAVGPGSLDEEGKITPLPVSTGSTVLYSKYAGNDFKGKDGSNYIALRASDVMAILS

Source: paper PMC8545988
